Assay results as given in article PMC5403948, “Eutirucallin: A Lectin with Antitumor and Antimicrobial Properties” (Frontiers in Cellular and Infection Microbiology, 2017).
In brackets after ≈: the same amount, converted by molar mass. Like-named read-outs stand apart in the source and are kept apart here.

System: T1, Eutirucallin
T1 construct: gene galactose-binding lectin
Conditions: minimum inhibitory concentration, 2% Balb/c mouse erythrocytes, room temperature

| SMILES | MIC (also eluted from D-galactose-agarose) [mM] | MIC [mM] |
| --- | --- | --- |
| OC[C@H]1OC(O)[C@H](O)[C@@H](O)[C@H]1O (stereo partly drawn) [d(+)-galactose] | 1.56 (≈ 281 µg/mL) | – |
| OC[C@H]1O[C@@H](O[C@H]2[C@H](O)[C@@H](O)[C@@H](O)O[C@@H]2CO)[C@H](O)[C@@H](O)[C@H]1O [α-lactose] | – | 25 (≈ 8560 µg/mL) |
